The assay addresses Flag-PHF20L1 (human (cDNA from U2OS cells)). The assay can be described thus: co-IP; SAOS2 cells transfected with HA-pRb forms and Flag-PHF20L1 forms; anti-Flag agarose in modified RIPA, 2 h at 4 °C; pRb detected by immunoblot; with or without 20 μM etoposide for 16 h. On the technique in general: In western blotting, separated proteins are transferred to a membrane and probed.

Results are given in words; binding and its absence hold for the method and conditions named. Binding seen in cells or lysates may run through a third protein. Binding can be weak; no strength is given. Sequences can lack the tags named with a protein.

B1: HA-pRb (protein, UniProt P06400 1-928)
chain: MPPKTPRKTAATAAAAAAEPPAPPPPPPPEEDPEQDSGPEDLPLVRLEFEETEEPDFTALCQKLKIPDHVRERAWLTWEKVSSVDGVLGGYIQKKKELWGICIFIAAVDLDEMSFTFTELQKNIEISVHKFFNLLKEIDTSTKVDNAMSRLLKKYDVLFALFSKLERTCELIYLTQPSSSISTEINSALVLKVSWITFLLAKGEVLQMEDDLVISFQLMLCVLDYFIKLSPPMLLKEPYKTAVIPINGSPRTPRRGQNRSARIAKQLENDTRIIEVLCKEHECNIDEVKNVYFKNFIPFMNSLGLVTSNGLPEVENLSKRYEEIYLKNKDLDARLFLDHDKTLQTDSIDSFETQRTPRKSNLDEEVNVIPPHTPVRTVMNTIQQLMMILNSASDQPSENLISYFNNCTVNPKESILKRVKDIGYIFKEKFAKAVGQGCVEIGSQRYKLGVRLYYRVMESMLKSEEERLSIQNFSKLLNDNIFHMSLLACALEVVMATYSRSTSQNLDSGTDLSFPWILNVLNLKAFDFYKVIESFIKAEGNLTREMIKHLERCEHRIMESLAWLSDSPLFDLIKQSKDREGPTDHLESACPLNLPLQNNHTAADMYLSPVRSPKKKGSTTRVNSTANAETQATSAFQTQKPLKSTSLSLFYKKVYRLAYLRLNTLCERLLSEHPELEHIIWTLFQHTLQNEYELMRDRHLDQIMMCSMYGICKVKNIDLKFKIIVTAYKDLPHAVQETFKRVLIKEEEYDSIIVFYNSVFMQRLKTNILQYASTRPPTLSPIPHIPRSPYKFPSSPLRIPGGNIYISPLKSPYKISEGLPTPTKMTPRSRILVSIGESFGTSEKFQKINQMVCNSDRVLKRSAEGSNPPKPLKKLRFDIEGSDEADGSKHLPGESKFQQKLAEMTSTRTRMQKQKMNDSMDTSNKEEK
Turning to B1, the binding entry is listed as “binds”.
